From publication PMC7457484
Results are given in words; binding and its absence hold for the method and conditions named. Binding seen in cells or lysates may run through a third protein. A yes stands for co-enrichment or nearness to the bait. Other partners may have been found.

Protein sequences, listed by entry. Tags and fused reporters are not part of them.
UniProt O95071: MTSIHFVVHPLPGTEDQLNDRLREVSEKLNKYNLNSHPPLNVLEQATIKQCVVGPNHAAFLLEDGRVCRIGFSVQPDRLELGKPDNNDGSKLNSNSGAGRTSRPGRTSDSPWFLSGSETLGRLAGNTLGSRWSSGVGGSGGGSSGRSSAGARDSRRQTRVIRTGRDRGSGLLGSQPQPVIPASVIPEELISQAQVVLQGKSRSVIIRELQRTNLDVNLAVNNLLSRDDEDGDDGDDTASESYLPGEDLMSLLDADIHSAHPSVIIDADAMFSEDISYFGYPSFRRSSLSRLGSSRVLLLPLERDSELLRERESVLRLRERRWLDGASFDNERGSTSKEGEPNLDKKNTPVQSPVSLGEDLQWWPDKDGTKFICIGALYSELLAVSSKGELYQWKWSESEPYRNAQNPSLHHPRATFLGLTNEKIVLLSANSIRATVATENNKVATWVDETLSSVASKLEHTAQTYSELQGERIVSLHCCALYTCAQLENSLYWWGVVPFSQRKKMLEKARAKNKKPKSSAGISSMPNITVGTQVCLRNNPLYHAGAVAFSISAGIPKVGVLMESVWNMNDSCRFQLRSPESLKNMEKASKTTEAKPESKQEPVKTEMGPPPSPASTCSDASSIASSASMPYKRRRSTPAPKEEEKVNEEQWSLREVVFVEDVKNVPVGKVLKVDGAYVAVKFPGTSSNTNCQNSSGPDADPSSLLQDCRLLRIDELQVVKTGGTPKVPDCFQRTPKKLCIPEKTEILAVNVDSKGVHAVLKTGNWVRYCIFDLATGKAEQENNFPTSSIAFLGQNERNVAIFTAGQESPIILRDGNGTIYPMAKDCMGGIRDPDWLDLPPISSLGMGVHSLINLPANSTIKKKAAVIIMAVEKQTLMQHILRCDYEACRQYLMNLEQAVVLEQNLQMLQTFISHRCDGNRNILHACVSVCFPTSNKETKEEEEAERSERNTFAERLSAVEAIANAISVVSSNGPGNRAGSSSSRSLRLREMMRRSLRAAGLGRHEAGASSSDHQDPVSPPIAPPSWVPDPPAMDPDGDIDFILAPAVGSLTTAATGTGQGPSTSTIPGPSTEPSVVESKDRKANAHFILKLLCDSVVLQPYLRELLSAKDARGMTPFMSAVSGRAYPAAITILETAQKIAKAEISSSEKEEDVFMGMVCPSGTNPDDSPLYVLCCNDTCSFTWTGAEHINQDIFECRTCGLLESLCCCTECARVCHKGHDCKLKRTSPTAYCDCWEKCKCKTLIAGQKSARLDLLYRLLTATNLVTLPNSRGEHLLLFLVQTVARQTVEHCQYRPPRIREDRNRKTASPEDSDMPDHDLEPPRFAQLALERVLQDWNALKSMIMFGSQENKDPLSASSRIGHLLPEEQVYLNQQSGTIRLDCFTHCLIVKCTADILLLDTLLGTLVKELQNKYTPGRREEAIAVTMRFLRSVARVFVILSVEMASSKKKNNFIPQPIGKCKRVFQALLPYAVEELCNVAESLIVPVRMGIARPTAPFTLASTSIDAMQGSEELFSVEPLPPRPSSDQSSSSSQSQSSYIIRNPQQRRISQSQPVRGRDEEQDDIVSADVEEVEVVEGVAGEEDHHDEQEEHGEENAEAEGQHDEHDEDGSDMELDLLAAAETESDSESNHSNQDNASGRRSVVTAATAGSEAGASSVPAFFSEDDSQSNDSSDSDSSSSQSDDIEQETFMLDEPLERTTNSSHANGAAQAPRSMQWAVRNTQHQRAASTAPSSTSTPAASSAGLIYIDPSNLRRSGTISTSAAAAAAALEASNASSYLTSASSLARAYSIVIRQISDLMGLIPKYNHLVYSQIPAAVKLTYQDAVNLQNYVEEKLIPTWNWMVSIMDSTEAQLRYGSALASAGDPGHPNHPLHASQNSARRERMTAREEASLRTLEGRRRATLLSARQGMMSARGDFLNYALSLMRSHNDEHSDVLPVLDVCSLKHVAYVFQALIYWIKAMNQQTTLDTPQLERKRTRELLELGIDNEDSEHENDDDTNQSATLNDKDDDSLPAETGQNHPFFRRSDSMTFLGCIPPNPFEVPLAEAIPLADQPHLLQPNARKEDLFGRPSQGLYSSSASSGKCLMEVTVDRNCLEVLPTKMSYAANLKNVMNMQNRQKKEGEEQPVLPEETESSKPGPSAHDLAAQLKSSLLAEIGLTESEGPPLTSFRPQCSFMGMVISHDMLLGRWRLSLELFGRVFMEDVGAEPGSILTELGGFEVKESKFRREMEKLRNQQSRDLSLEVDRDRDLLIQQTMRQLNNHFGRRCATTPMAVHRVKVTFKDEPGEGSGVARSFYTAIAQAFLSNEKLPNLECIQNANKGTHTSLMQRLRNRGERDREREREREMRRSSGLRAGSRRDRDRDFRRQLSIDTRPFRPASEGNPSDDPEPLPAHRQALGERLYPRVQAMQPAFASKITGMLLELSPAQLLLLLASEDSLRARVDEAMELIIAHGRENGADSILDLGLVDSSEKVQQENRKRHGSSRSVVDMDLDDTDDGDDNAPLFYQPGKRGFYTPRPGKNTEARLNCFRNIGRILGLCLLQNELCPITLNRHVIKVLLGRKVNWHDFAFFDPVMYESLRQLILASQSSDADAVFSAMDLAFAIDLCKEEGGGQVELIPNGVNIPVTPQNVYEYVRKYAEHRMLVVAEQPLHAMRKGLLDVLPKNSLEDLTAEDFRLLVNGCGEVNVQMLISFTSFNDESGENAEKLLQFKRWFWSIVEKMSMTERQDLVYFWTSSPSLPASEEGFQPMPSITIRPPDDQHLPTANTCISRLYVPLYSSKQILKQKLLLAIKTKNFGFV

Target: FLAG-tagged UBR5 (human) (UniProt O95071)
Assay: affinity purification with mass spectrometry; HEK293T transiently transfected in triplicate with FLAG-UBR5 or FLAG alone (control); 1% CHAPS lysis buffer; anti-FLAG beads, washed, competed off with FLAG peptides in molar excess; mass spectrometry

Binder | binding
Annexin A1 (protein, UniProt P04083 1-346) MAMVSEFLKQAWFIENEEQEYVQTVKSSKGGPGSAVSPYPTFNPSSDVAALHKAIMVKGVDEATIIDILTKRNNAQRQQIKAAYLQETGKPLDETLKKALTGHLEEVVLALLKTPAQFDADELRAAMKGLGTDEDTLIEILASRTNKEIRDINRVYREELKRDLAKDITSDTSGDFRNALLSLAKGDRSEDFGVNEDLADSDARALYEAGERRKGTDVNVFNTILTTRSYPQLRRVFQKYTKYSKHDMNKVLDLELKGDIEKCLTAIVKCATSKPAFFAEKLHQAMKGVGTRHKALIRIMVSRSEIDMNDIKAFYQKMYGISLCQAILDETKGDYEKILVALCGGN | binds
SLC25A6 (protein, UniProt P12236 1-298) MTEQAISFAKDFLAGGIAAAISKTAVAPIERVKLLLQVQHASKQIAADKQYKGIVDCIVRIPKEQGVLSFWRGNLANVIRYFPTQALNFAFKDKYKQIFLGGVDKHTQFWRYFAGNLASGGAAGATSLCFVYPLDFARTRLAADVGKSGTEREFRGLGDCLVKITKSDGIRGLYQGFSVSVQGIIIYRAAYFGVYDTAKGMLPDPKNTHIVVSWMIAQTVTAVAGVVSYPFDTVRRRMMMQSGRKGADIMYTGTVDCWRKIFRDEGGKAFFKGAWSNVLRGMGGAFVLVLYDELKKVI | binds
